# Test results taken from the supplement of paper PMC8728848.
# The list shows a part of the results.
# Experiments:
# Experiment in all cases: glycan array binding signal (z-score within array); higher = stronger binding
# Conditions in all cases: glycan notation: IUPAC condensed, linker removed
# [1] = molecular target: Neu5Ac(a2-6)Gal(b1-4)GlcNAc(b1-3)Gal(b1-4)GlcNAc(b1-3)GalNAc
# In short: (§1)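 Glycan array data came from 3228 arrays in the Consortium for Functional Glycomics database, and only arrays with an available protein sequence were kept. Glycan names were put into IUPAC-condensed notation, and columns mapping to the same glycan were averaged. The binding signal is a within-array Z-score, averaged across arrays of one protein sequence run at different concentrations or buffers and across linkers. A negative Z-score can be read as non-binding.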
# [2] = molecular target: Neu5Ac(a2-6)Gal(b1-4)GlcNAc(b1-3)Gal(b1-4)GlcNAc(b1-3)[Neu5Ac(a2-6)Gal(b1-4)GlcNAc(b1-3)Gal(b1-4)GlcNAc(b1-6)]GalNAc
# In short: as §1
# [3] = molecular target: Neu5Ac(a2-6)Gal(b1-4)GlcNAc(b1-3)Gal(b1-4)GlcNAc(b1-6)[Gal(b1-3)]GalNAc
# In short: as §1
# [4] = molecular target: Neu5Ac(a2-6)Gal(b1-4)GlcNAc(b1-3)Gal(b1-4)[Fuc(a1-3)]GlcNAc(b1-3)Gal(b1-4)[Fuc(a1-3)]GlcNAc
# In short: as §1
# [5] = molecular target: Neu5Ac(a2-6)Gal(b1-4)GlcNAc(b1-3)GalNAc
# In short: as §1
# [6] = molecular target: Neu5Ac(a2-6)Gal(b1-4)GlcNAc(b1-3)[Neu5Ac(a2-6)Gal(b1-4)GlcNAc(b1-6)]GalNAc
# In short: as §1
# [7] = molecular target: Neu5Ac(a2-6)Gal(b1-4)GlcNAc(b1-6)GalNAc
# In short: as §1
# [8] = molecular target: Neu5Ac(a2-6)Gal(b1-4)GlcNAc(b1-6)[Gal(b1-3)GlcNAc(b1-3)]Gal(b1-4)Glc
# In short: as §1
# [9] = molecular target: Neu5Ac(a2-6)Gal(b1-4)GlcNAc(b1-6)[Gal(b1-3)]GalNAc
# In short: as §1
# [10] = molecular target: Neu5Ac(a2-6)Gal(b1-4)GlcNAc6S
# In short: as §1
# Neu5Ac(a2-6)GalNAc = molecular target: Neu5Ac(a2-6)GalNAc
# In short: as §1
# [11] = molecular target: Neu5Ac(a2-6)GalNAc(b1-4)GlcNAc
# In short: as §1
# [12] = molecular target: Neu5Ac(a2-6)GalNAc(b1-4)GlcNAc6S
# In short: as §1
# [13] = molecular target: Neu5Ac(a2-6)GlcNAc(b1-4)GlcNAc
# In short: as §1
# [14] = molecular target: Neu5Ac(a2-6)GlcNAc(b1-4)GlcNAc(b1-4)GlcNAc
# In short: as §1
# Neu5Ac(a2-8)Neu5Ac = molecular target: Neu5Ac(a2-8)Neu5Ac
# In short: as §1
# [15] = molecular target: Neu5Ac(a2-8)Neu5Ac(a2-3)Gal(b1-3)GalNAc(b1-4)[Neu5Ac(a2-3)]Gal(b1-4)Glc
# In short: as §1
# [16] = molecular target: Neu5Ac(a2-8)Neu5Ac(a2-3)Gal(b1-3)GalNAc(b1-4)[Neu5Ac(a2-8)Neu5Ac(a2-3)]Gal(b1-4)Glc
# In short: as §1
# [17] = molecular target: Neu5Ac(a2-8)Neu5Ac(a2-3)Gal(b1-4)Glc
# In short: as §1
# [18] = molecular target: Neu5Ac(a2-8)Neu5Ac(a2-3)Gal(b1-4)GlcNAc
# In short: as §1
# [19] = molecular target: Neu5Ac(a2-8)Neu5Ac(a2-3)[Gal(b1-3)GalNAc(b1-4)]Gal(b1-4)Glc
# In short: as §1
# [20] = molecular target: Neu5Ac(a2-8)Neu5Ac(a2-3)[GalNAc(b1-4)]Gal(b1-4)Glc
# In short: as §1
# [21] = molecular target: Neu5Ac(a2-8)Neu5Ac(a2-8)Neu5Ac
# In short: as §1
# [22] = molecular target: Neu5Ac(a2-8)Neu5Ac(a2-8)Neu5Ac(a2-3)Gal(b1-4)Glc
# In short: as §1
# [23] = molecular target: Neu5Ac(a2-8)Neu5Ac(a2-8)Neu5Ac(a2-3)[Gal(b1-3)GalNAc(b1-4)]Gal(b1-4)Glc
# In short: as §1
# [24] = molecular target: Neu5Ac(a2-8)Neu5Ac(a2-8)Neu5Ac(a2-3)[GalNAc(b1-4)]Gal(b1-4)Glc
# In short: as §1
# [25] = molecular target: Neu5Ac(a2-8)Neu5Ac(a2-8)Neu5Ac(a2-8)Neu5Ac(a2-3)[GalNAc(b1-4)]Gal(b1-4)Glc
# In short: as §1
# [26] = molecular target: Neu5Ac(a2-8)Neu5Gc(a2-3)Gal(b1-4)GlcNAc
# In short: as §1
# [27] = molecular target: Neu5Ac(b2-6)Gal(b1-4)GlcNAc
# In short: as §1
# Neu5Ac(b2-6)GalNAc = molecular target: Neu5Ac(b2-6)GalNAc
# In short: as §1
# [28] = molecular target: Neu5Ac9Ac(a2-3)Gal(b1-3)GlcNAc
# In short: as §1
# [29] = molecular target: Neu5Ac9Ac(a2-3)Gal(b1-4)GlcNAc
# In short: as §1
# [30] = molecular target: Neu5Ac9Ac(a2-6)Gal(b1-4)GlcNAc
# In short: as §1
# [31] = molecular target: Neu5Gc(a2-3)Gal(b1-3)GlcNAc
# In short: as §1
# [32] = molecular target: Neu5Gc(a2-3)Gal(b1-3)[Fuc(a1-4)]GlcNAc
# In short: as §1
# Neu5Gc(a2-3)Gal(b1-4)Glc = molecular target: Neu5Gc(a2-3)Gal(b1-4)Glc
# In short: as §1
# [33] = molecular target: Neu5Gc(a2-3)Gal(b1-4)GlcNAc
# In short: as §1
# [34] = molecular target: Neu5Gc(a2-3)Gal(b1-4)GlcNAc(b1-3)Gal(b1-4)GlcNAc(b1-2)Man(a1-3)[Neu5Gc(a2-3)Gal(b1-4)GlcNAc(b1-3)Gal(b1-4)GlcNAc(b1-2)Man(a1-6)]Man(b1-4)GlcNAc(b1-4)GlcNAc
# In short: as §1
# [35] = molecular target: Neu5Gc(a2-3)Gal(b1-4)[Fuc(a1-3)]GlcNAc
# In short: as §1
# [36] = molecular target: Neu5Gc(a2-6)Gal(b1-4)GlcNAc
# In short: as §1
# Neu5Gc(a2-6)GalNAc = molecular target: Neu5Gc(a2-6)GalNAc
# In short: as §1
# [37] = molecular target: Neu5Gc(a2-8)Neu5Ac(a2-3)Gal(b1-4)GlcNAc
# In short: as §1
# [38] = molecular target: Neu5Gc(a2-8)Neu5Gc(a2-3)Gal(b1-4)GlcNAc
# In short: as §1
# [39] = molecular target: Neu5Gc(a2-8)Neu5Gc(a2-3)Gal(b1-4)GlcNAc(b1-3)Gal(b1-4)GlcNAc
# In short: as §1
# [40] = molecular target: Neu5Gc(a2-8)Neu5Gc(a2-6)Gal(b1-4)GlcNAc
# In short: as §1
# [41] = molecular target: Neu5Gc(b2-6)Gal(b1-4)GlcNAc
# In short: as §1
binder,measurement,setting,value
Pwp1 (Candida glabrata) (protein) MGSSHHHHHHSSGLVPRGSHMASANPISITNVCQFPDNWARTAGFQATTVRLGLTIASNTYKELLNYPGLFNFATQKATVTQPNFSISGFPFFTGLYGLTVWPINLLVELQGYFVPPESGNYTFTLQGSDDAAILFFANPSTFACGSQNDWPQPREADITVTDTLVPSRTLYLVKGVAYPIRIAYYNGSGDGKLNVSFKDPSGTTHTDWKGYVWQYSNTCSTCTYT,glycan array binding signal (z-score),[1],1.26
same,glycan array binding signal (z-score),[2],-1.39
same,glycan array binding signal (z-score),[3],-1.05
same,glycan array binding signal (z-score),[4],-1.59
same,glycan array binding signal (z-score),[5],-0.238
same,glycan array binding signal (z-score),[6],-1.05
same,glycan array binding signal (z-score),[7],-0.167
same,glycan array binding signal (z-score),[8],0.42
same,glycan array binding signal (z-score),[9],-1.62
same,glycan array binding signal (z-score),[10],0.601
same,glycan array binding signal (z-score),Neu5Ac(a2-6)GalNAc,0.753
same,glycan array binding signal (z-score),[11],0.913
same,glycan array binding signal (z-score),[12],0.553
same,glycan array binding signal (z-score),[13],-0.406
same,glycan array binding signal (z-score),[14],-1.14
same,glycan array binding signal (z-score),Neu5Ac(a2-8)Neu5Ac,-1.47
same,glycan array binding signal (z-score),[15],-1.64
same,glycan array binding signal (z-score),[16],-1.47
same,glycan array binding signal (z-score),[17],0.642
same,glycan array binding signal (z-score),[18],-1.78
same,glycan array binding signal (z-score),[19],0.425
same,glycan array binding signal (z-score),[20],-0.763
same,glycan array binding signal (z-score),[21],-0.5
same,glycan array binding signal (z-score),[22],-0.355
same,glycan array binding signal (z-score),[23],-0.308
same,glycan array binding signal (z-score),[24],0.471
same,glycan array binding signal (z-score),[25],-1.88
same,glycan array binding signal (z-score),[26],0.379
same,glycan array binding signal (z-score),[27],1.03
same,glycan array binding signal (z-score),Neu5Ac(b2-6)GalNAc,1.13
same,glycan array binding signal (z-score),[28],-0.103
same,glycan array binding signal (z-score),[29],-0.15
same,glycan array binding signal (z-score),[30],0.801
same,glycan array binding signal (z-score),[31],0.358
same,glycan array binding signal (z-score),[32],0.176
same,glycan array binding signal (z-score),Neu5Gc(a2-3)Gal(b1-4)Glc,-1.49
same,glycan array binding signal (z-score),[33],0.532
same,glycan array binding signal (z-score),[34],0.839
same,glycan array binding signal (z-score),[35],0.985
same,glycan array binding signal (z-score),[36],-0.738
same,glycan array binding signal (z-score),Neu5Gc(a2-6)GalNAc,-1.24
same,glycan array binding signal (z-score),[37],0.812
same,glycan array binding signal (z-score),[38],0.362
same,glycan array binding signal (z-score),[39],0.437
same,glycan array binding signal (z-score),[40],1.17
same,glycan array binding signal (z-score),[41],0.394

# An excerpt of these results, as tab-separated lines.
binder	measurement	setting	value
Pwp1 (Candida glabrata) (protein) MGSSHHHHHHSSGLVPRGSHMASANPISITNVCQFPDNWARTAGFQATTVRLGLTIASNTYKELLNYPGLFNFATQKATVTQPNFSISGFPFFTGLYGLTVWPINLLVELQGYFVPPESGNYTFTLQGSDDAAILFFANPSTFACGSQNDWPQPREADITVTDTLVPSRTLYLVKGVAYPIRIAYYNGSGDGKLNVSFKDPSGTTHTDWKGYVWQYSNTCSTCTYT	glycan array binding signal (z-score)	[17]	0.642
same	glycan array binding signal (z-score)	[18]	-1.78
same	glycan array binding signal (z-score)	[19]	0.425
same	glycan array binding signal (z-score)	[20]	-0.763
same	glycan array binding signal (z-score)	[21]	-0.5
same	glycan array binding signal (z-score)	[22]	-0.355
same	glycan array binding signal (z-score)	[23]	-0.308
same	glycan array binding signal (z-score)	[24]	0.471
same	glycan array binding signal (z-score)	[25]	-1.88
same	glycan array binding signal (z-score)	[26]	0.379
same	glycan array binding signal (z-score)	[27]	1.03
same	glycan array binding signal (z-score)	Neu5Ac(b2-6)GalNAc	1.13
same	glycan array binding signal (z-score)	[28]	-0.103
